For at least one compound, name, drawing or mass did not settle the structure.
Assays:
MOG-induced EAE [1] = assay: MOG-induced EAE mouse model, late prophylactic treatment: clinical readouts; type: in vivo, C57BL/6 mice; conditions: Dex 0.6 mg/kg i.p. daily, 5 times a week
MOG-induced EAE [2] = assay: MOG-induced EAE mouse model: histological analysis of spinal cord (H&E and Luxol fast blue staining); type: in vivo, C57BL/6 mice; conditions: Dex 0.6 mg/kg daily, 5 times a week, vs vehicle

Which Clinical readouts (MOG-induced EAE [1]) does the source give for C[C@@H]1C[C@H]2[C@@H]3CCC4=CC(=O)C=C[C@]4(C)[C@@]3(F)[C@@H](O)C[C@]2(C)[C@@]1(O)C(=O)CO [Dex, Dexamethasone] here?
The Clinical readouts was “strong amelioration”.

What about the Disease duration (MOG-induced EAE [1]; vs vehicle) of the same compound?
Its Disease duration is “statistically significant reduction”.

And the Disease incidence (MOG-induced EAE [1]; vs vehicle)?
Its Disease incidence is “No significant effects”.

What about the Disease onset (MOG-induced EAE [1]; vs vehicle) of the same compound?
Its Disease onset is “significantly delayed”.

What about the Cumulative score (MOG-induced EAE [1]; vs vehicle, statistically significant (Kruskal-Wallis)) of the same compound?
Its Cumulative score is “reduction of the cumulative score”.

What about the Clinical score (MOG-induced EAE [1]; entire treatment period, vs vehicle) of the same compound?
Its Clinical score is “significant lower clinical score”.

And the “Degree of demyelination (Luxol fast blue, spinal cord)” value (MOG-induced EAE [2])?
Its value is “significantly reduced”.

What about the “Degree of demyelination (Luxol fast blue, spinal cord)” value (MOG-induced EAE [2]; listed as DEX) of the same compound?
The value was “do not show demyelination plaques”.

From patent publication EP3721896B1, “EPIDERMAL GROWTH FACTOR (EGF) AND VARIANTS THEREOF FOR TREATING OR PREVENTING INFLAMMATORY DEMYELINATING DISORDERS” (Scalabrino, Giuseppe, priority 2019, dated 2023)
